Tested on: autophagy
Test: Autophagy assays identifying autophagy modulators
Format: cell-based

CCN(CC)CCOC(=O)C1(C2CCCCC2)CCCCC1 [dicyclomine]
activity as autophagy modulator: agonists or inducers of autophagy

— US10610564B2, “IRGM and precision autophagy controls for antimicrobial and inflammatory disease states and methods of detection of autophagy” (STC.UNM, priority 2015, dated 2020)
